Test results from patent US20180187263A1, “KITS FOR DIAGNOSTIC DETECTION AND PREVENTION OF FEEDLOT BOVINE RESPIRATORY DISEASE” (Iowa State University Research Foundation, Inc., priority 2017, published 2018).

Protein sequences, listed by entry. Tags and fused reporters are not part of them. Lines headed by an entry give the natural chain unless they say otherwise; changes in a name come on top.
UniProt Q9TTY5: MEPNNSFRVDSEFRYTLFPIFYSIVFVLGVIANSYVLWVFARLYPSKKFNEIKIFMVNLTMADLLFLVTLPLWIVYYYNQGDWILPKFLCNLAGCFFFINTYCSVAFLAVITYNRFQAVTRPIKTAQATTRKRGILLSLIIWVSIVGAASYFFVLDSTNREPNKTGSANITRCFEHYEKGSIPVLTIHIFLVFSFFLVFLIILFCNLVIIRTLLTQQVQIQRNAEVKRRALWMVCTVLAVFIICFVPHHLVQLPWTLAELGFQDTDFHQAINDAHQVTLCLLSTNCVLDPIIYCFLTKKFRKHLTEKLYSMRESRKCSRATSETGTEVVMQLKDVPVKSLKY

Molecular target: T1, Bovine PAFR (Bos taurus, UniProt Q9TTY5)
T1 construct: expressed in transfected cells; host or cells: BHK cells, transient, lipofectamine, pcDNA3.3
Experiment: PAF-mediated intracellular calcium accumulation in BHK cells transiently expressing bovine PAFR
Assay type: cell-based
Conditions: 10 nM PAF; antihistamines 1-100 nM

SMILES: CN1CCC[C@@H]1CCO[C@](C)(c1ccccc1)c1ccc(Cl)cc1 [clemastine]
- block of bovine PAFR (PAF-mediated intracellular calcium accumulation), FIG. 12: do not block
